Experimental data from the supplement of paper PMC10849652.
Some of the results follow.

Amino acid sequences for entries named in this document (tags omitted). A change or cut given only in a name is not applied to a line headed by its entry.
UniProt Q96E29: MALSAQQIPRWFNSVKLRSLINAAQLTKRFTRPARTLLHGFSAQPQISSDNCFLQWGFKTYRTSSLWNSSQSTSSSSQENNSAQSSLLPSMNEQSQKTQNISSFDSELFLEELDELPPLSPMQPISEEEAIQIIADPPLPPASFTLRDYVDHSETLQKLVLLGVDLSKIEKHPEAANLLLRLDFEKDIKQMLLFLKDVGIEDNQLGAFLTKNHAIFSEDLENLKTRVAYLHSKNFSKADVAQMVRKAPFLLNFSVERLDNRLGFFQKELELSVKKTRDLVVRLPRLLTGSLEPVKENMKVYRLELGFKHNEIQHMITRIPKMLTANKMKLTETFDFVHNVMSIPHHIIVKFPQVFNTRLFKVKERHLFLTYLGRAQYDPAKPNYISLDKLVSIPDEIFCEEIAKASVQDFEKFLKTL
UniProt Q9Y2K3: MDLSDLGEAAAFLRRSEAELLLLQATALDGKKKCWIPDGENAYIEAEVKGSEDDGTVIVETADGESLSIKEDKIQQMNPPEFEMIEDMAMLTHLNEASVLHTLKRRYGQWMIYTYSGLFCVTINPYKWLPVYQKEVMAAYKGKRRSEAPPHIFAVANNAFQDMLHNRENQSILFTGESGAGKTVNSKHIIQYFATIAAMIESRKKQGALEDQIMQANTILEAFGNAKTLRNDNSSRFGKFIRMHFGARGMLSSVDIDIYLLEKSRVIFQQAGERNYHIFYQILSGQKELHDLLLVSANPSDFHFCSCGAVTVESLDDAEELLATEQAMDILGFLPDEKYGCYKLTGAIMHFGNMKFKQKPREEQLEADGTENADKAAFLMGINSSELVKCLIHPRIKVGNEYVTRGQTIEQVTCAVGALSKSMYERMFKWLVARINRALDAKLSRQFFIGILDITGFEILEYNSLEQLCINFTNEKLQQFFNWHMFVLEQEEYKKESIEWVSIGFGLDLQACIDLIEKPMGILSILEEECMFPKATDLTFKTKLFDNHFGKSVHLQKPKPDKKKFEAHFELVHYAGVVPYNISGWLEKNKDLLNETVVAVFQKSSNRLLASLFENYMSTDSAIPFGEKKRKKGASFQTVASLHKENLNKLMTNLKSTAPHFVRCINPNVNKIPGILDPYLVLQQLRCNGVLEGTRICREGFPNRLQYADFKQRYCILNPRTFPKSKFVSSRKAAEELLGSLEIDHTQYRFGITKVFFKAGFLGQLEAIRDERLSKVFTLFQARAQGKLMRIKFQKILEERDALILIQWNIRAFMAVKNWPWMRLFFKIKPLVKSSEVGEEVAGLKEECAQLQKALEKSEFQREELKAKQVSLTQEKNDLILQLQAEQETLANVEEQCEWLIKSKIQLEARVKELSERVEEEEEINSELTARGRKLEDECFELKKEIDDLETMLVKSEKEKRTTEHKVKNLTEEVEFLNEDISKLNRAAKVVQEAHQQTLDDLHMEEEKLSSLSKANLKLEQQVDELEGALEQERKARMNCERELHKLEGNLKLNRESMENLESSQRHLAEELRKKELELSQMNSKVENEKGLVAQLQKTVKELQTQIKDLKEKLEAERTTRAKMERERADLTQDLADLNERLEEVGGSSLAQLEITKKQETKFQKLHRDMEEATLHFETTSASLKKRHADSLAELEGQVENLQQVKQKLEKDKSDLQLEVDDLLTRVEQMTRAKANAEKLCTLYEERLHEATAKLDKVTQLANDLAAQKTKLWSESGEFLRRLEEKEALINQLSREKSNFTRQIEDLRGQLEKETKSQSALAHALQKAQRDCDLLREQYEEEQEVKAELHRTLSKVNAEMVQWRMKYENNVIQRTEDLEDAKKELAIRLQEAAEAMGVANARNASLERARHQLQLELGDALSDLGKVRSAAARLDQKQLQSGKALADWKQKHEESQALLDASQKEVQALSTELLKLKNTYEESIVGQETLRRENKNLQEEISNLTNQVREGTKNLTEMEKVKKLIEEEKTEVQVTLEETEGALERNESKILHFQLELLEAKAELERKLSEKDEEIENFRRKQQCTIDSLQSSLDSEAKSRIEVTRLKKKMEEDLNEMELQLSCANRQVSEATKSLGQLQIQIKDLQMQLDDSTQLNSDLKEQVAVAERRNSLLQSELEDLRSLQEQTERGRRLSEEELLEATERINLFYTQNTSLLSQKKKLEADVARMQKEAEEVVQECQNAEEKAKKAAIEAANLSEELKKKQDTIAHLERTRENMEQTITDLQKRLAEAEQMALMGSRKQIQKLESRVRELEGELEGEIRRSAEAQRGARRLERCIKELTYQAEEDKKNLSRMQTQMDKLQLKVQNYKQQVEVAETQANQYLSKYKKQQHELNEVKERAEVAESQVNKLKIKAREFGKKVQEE
UniProt Q15746, whole entry, looked up: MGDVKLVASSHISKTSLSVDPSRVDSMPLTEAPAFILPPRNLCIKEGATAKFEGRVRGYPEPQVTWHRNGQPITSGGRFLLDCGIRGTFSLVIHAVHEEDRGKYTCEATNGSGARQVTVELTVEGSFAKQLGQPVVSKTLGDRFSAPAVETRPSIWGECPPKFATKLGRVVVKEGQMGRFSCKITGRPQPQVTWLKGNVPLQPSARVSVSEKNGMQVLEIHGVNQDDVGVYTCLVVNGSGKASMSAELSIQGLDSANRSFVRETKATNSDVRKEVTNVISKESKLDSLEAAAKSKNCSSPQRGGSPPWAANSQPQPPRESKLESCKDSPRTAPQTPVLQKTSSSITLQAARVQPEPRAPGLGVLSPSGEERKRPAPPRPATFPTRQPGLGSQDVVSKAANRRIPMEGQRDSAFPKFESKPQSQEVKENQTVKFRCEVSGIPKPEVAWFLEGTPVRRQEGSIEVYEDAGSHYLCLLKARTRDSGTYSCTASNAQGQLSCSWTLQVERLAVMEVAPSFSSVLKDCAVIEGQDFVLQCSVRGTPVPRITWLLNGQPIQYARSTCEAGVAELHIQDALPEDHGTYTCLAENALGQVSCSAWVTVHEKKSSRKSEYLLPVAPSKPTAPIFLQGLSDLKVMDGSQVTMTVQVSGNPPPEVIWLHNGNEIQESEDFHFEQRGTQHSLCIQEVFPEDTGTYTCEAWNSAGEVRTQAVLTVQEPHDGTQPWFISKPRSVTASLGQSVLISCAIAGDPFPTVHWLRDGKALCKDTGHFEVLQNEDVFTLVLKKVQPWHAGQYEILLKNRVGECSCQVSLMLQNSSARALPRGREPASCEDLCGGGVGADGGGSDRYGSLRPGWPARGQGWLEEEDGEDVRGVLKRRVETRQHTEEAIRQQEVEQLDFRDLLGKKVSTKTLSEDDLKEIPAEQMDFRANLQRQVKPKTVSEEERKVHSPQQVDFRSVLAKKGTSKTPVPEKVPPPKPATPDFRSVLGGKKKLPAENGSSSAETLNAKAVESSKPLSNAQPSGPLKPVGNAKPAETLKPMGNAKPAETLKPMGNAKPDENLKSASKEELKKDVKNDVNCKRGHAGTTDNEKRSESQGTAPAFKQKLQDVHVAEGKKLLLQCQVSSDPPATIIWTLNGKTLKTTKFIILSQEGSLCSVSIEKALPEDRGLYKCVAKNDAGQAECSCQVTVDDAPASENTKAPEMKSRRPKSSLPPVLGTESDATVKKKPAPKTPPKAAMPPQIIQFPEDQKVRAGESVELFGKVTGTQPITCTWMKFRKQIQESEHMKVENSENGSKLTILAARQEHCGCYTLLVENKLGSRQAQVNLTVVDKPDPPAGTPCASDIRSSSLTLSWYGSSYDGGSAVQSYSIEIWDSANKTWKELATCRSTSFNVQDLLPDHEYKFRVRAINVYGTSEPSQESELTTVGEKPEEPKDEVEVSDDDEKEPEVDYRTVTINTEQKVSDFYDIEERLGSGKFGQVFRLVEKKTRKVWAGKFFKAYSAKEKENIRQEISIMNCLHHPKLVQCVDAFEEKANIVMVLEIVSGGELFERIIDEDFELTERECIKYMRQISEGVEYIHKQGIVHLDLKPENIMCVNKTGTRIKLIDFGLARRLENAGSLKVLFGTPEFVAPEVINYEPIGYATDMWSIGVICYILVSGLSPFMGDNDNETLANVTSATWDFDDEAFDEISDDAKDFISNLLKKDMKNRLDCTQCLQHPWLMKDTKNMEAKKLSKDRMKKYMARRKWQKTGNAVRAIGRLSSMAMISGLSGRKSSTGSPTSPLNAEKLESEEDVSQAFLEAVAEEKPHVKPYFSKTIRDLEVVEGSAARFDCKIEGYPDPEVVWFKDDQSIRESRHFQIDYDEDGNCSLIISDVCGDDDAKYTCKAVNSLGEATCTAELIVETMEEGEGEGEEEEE
UniProt Q9BTC8: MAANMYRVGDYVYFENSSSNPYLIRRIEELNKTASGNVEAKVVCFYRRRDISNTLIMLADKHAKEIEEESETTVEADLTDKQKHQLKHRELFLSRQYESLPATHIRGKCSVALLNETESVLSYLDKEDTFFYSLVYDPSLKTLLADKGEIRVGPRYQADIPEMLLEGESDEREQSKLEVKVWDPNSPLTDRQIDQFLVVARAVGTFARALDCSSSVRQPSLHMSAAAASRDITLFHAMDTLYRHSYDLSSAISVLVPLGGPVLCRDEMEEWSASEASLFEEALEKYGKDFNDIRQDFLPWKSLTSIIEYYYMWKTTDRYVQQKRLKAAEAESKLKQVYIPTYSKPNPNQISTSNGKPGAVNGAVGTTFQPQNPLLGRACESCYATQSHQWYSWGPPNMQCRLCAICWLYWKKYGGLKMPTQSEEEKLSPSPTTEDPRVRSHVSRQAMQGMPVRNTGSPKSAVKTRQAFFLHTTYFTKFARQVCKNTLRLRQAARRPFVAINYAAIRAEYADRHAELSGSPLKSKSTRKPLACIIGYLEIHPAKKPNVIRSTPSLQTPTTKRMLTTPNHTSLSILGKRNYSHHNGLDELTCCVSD
UniProt Q96QG7: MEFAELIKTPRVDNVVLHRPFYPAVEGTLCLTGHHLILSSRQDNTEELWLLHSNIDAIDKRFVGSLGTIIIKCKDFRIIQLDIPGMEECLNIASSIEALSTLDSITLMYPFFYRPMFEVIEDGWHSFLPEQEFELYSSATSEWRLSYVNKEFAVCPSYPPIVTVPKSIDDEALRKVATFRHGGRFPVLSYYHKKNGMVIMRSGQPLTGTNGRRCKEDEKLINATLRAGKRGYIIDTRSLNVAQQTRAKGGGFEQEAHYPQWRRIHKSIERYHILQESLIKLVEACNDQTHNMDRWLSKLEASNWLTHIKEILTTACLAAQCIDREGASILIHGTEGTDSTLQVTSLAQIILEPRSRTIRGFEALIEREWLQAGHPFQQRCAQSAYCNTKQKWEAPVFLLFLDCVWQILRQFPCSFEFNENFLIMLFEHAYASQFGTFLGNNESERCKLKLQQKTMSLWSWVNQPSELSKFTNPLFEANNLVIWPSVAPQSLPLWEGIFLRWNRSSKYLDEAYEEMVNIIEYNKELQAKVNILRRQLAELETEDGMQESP
UniProt P08590, whole entry, looked up: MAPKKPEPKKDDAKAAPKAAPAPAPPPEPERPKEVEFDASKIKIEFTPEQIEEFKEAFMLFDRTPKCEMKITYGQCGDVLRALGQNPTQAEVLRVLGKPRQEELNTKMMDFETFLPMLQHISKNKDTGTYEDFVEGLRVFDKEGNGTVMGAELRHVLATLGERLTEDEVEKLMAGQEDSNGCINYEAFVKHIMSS
UniProt Q93083: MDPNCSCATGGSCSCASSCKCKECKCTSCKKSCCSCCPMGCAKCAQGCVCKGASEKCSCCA
UniProt Q9BT17: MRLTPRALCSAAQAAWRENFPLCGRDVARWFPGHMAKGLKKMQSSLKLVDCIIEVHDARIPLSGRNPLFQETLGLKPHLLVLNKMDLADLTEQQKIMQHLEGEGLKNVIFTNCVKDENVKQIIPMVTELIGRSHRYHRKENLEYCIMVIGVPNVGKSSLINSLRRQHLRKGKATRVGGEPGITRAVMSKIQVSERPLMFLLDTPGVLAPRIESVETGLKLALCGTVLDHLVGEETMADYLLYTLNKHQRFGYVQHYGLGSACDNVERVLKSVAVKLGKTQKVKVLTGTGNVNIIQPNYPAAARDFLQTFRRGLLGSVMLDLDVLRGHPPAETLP
UniProt Q9UGC7: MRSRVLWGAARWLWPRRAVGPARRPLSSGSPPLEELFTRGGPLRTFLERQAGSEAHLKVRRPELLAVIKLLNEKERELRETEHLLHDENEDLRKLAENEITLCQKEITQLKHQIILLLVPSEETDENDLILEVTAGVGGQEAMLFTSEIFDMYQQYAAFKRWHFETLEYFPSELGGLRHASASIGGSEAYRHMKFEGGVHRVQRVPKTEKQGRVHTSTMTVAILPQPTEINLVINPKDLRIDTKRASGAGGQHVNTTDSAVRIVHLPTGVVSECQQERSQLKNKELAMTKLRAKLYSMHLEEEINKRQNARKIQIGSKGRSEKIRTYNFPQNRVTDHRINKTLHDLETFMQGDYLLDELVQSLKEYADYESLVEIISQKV

Each target was assayed with Nc1ccccc1NC(=O)c1ccc(CNC(=O)OCc2cccnc2)cc1 [entinostat] (assay: log2 fold change, soluble protein after heating vs DMSO (PISA); higher = thermal stabilisation; K562 cells, 10 uM, 30 min; active = over 0.2 and 3.5 SD of the protein, either way, in both replicates (recomputed)).
Summary of the method: (§1)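 K562 cells at 2×10^6 cells/mL were given 10 μM compound for 30 min. Aliquots then went through 3 min of heating across 48°C-58°C, were pooled, and were extracted in PBS with 0.5% NP-40 at 4°C, and the supernatant after 21,000xg for 90 min was quantified by TMTpro 16plex LC-MS/MS with channel sums equalised. Thermal stability relative to control samples, from duplicates, is given as log2 fold change.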

Q: MTERF3 (UniProt Q96E29) was tested. Which log2 fold change did it give?
A: inactive: 0.077

Q: With MTFR1L (UniProt Q9H019) as the target, how does the log2 fold change read?
A: inactive: 0.069

Q: Which log2 fold change does the source give for MRPS14 (UniProt O60783) here?
A: inactive: -0.002

Q: How did the log2 fold change turn out when MYO9A isoform 4 (UniProt B2RTY4) was run?
A: inactive: -0.055

Q: For MYH15 (UniProt Q9Y2K3), which log2 fold change is on record?
A: inactive: -0.124

Q: Which log2 fold change does the source give for MTIF2 (UniProt P46199) here?
A: inactive: 0.119

Q: MYNN (UniProt Q9NPC7) was tested. Which log2 fold change did it give?
A: inactive: -0.569

Q: For MTRF1 (UniProt O75570), which log2 fold change is on record?
A: inactive: 0.05

Q: Which log2 fold change does the source give for MSANTD2 (UniProt Q6P1R3) here?
A: inactive: -0.184

Q: How did the log2 fold change turn out when MYLK (UniProt Q15746) was run?
A: inactive: -0.081

Q: How did the log2 fold change turn out when MTHFD2L (UniProt Q9H903) was run?
A: inactive: -0.052

Q: For MTMR4 (UniProt Q9NYA4), which log2 fold change is on record?
A: inactive: -0.02

Q: With MTA3 (UniProt Q9BTC8) as the target, how does the log2 fold change read?
A: inactive: 0

Q: With MTAP isoform 2 (UniProt Q13126) as the target, how does the log2 fold change read?
A: inactive: -0.133

Q: With MUC7 (UniProt Q8TAX7) as the target, how does the log2 fold change read?
A: inactive: -0.143

Q: With MRPS36 (UniProt D6R941) as the target, how does the log2 fold change read?
A: inactive: 0.095

Q: How did the log2 fold change turn out when MTIF3 (UniProt Q9H2K0) was run?
A: inactive: -0.223

Q: With MTFMT (UniProt Q96DP5) as the target, how does the log2 fold change read?
A: inactive: -0.216

Q: Which log2 fold change does the source give for MTMR10 (UniProt Q9NXD2) here?
A: inactive: -0.034

Q: MYO18B isoform 3 (UniProt Q8IUG5) was tested. Which log2 fold change did it give?
A: inactive: -0.103

Each target was assayed with O=C(CCCCCCC(=O)Nc1ccccc1)NO [vorinostat] in the same assay as above.
Summary of the method: as §1

Q: With MYO19 (UniProt Q96H55) as the target, how does the log2 fold change read?
A: inactive: 0.029

Q: MTERF3 (UniProt Q96E29) was tested. Which log2 fold change did it give?
A: inactive: 0.119

Q: How did the log2 fold change turn out when MTMR9 (UniProt Q96QG7) was run?
A: inactive: 0.013

Q: How did the log2 fold change turn out when MTFR1L (UniProt Q9H019) was run?
A: inactive: 0.356

Q: MYL3 (UniProt P08590) was tested. Which log2 fold change did it give?
A: inactive: 0.016

Q: For MRPS14 (UniProt O60783), which log2 fold change is on record?
A: inactive: 0.209

Q: How did the log2 fold change turn out when MYO9A isoform 4 (UniProt B2RTY4) was run?
A: inactive: -0.012

Q: With MT1L (UniProt Q93083) as the target, how does the log2 fold change read?
A: inactive: 0.236

Q: For MT-ND2 (UniProt P03891), which log2 fold change is on record?
A: inactive: 0.036

Q: With MTG1 (UniProt Q9BT17) as the target, how does the log2 fold change read?
A: inactive: 0.072

Q: With MTHFD1L (UniProt B7ZM99) as the target, how does the log2 fold change read?
A: inactive: 0.076

Q: For MYLK (UniProt Q15746), which log2 fold change is on record?
A: inactive: -0.059

Q: With MTRF1L (UniProt Q9UGC7) as the target, how does the log2 fold change read?
A: inactive: 0.046

Q: How did the log2 fold change turn out when MYBBP1A isoform 2 (UniProt Q9BQG0) was run?
A: inactive: 0.111

Q: MTA3 (UniProt Q9BTC8) was tested. Which log2 fold change did it give?
A: inactive: 0.236

Q: How did the log2 fold change turn out when MYH6 (UniProt P13533) was run?
A: inactive: -0.088

Q: For MTAP isoform 2 (UniProt Q13126), which log2 fold change is on record?
A: inactive: -0.032

Q: How did the log2 fold change turn out when MYO1B (UniProt O43795) was run?
A: inactive: 0.063

Q: For MTIF3 (UniProt Q9H2K0), which log2 fold change is on record?
A: inactive: -0.023

Q: For MYH3 (UniProt P11055), which log2 fold change is on record?
A: inactive: 0.037

The targets below were run with O=C(CCCCCCNC(=O)c1cnc(N(c2ccccc2)c2ccccc2Cl)nc1)NO [citarinostat] in the same assay as above.
Summary of the method: as §1

Q: MTMR9 (UniProt Q96QG7) was tested. Which log2 fold change did it give?
A: inactive: -0.023

Q: Which log2 fold change does the source give for MVP (UniProt Q14764) here?
A: inactive: -0.829

Q: With MTRES1 (UniProt Q9P0P8) as the target, how does the log2 fold change read?
A: inactive: -0.001

Q: For MYL3 (UniProt P08590), which log2 fold change is on record?
A: inactive: -0.132

Q: Which log2 fold change does the source give for MRPS14 (UniProt O60783) here?
A: inactive: -0.053

Q: With MYH15 (UniProt Q9Y2K3) as the target, how does the log2 fold change read?
A: inactive: -0.003

Q: With MT1L (UniProt Q93083) as the target, how does the log2 fold change read?
A: inactive: -0.04

Q: For MYH4 (UniProt Q9Y623), which log2 fold change is on record?
A: inactive: -1.18

Q: With MSANTD2 (UniProt Q6P1R3) as the target, how does the log2 fold change read?
A: inactive: -0.124

Q: For MYH2 (UniProt Q9UKX2), which log2 fold change is on record?
A: inactive: -1.25

Q: MTHFD1L (UniProt B7ZM99) was tested. Which log2 fold change did it give?
A: inactive: 0.027

Q: How did the log2 fold change turn out when MYLK (UniProt Q15746) was run?
A: inactive: -0.089

Q: For MTRF1L (UniProt Q9UGC7), which log2 fold change is on record?
A: inactive: -0.026

Q: With MYBBP1A isoform 2 (UniProt Q9BQG0) as the target, how does the log2 fold change read?
A: inactive: 0.15

Q: With MTA3 (UniProt Q9BTC8) as the target, how does the log2 fold change read?
A: inactive: 0.041

Q: For MTFMT (UniProt Q96DP5), which log2 fold change is on record?
A: inactive: 0.038

Q: For MYH3 (UniProt P11055), which log2 fold change is on record?
A: inactive: -0.446

Q: For MYO18B isoform 3 (UniProt Q8IUG5), which log2 fold change is on record?
A: inactive: -0.196

The targets below were run with O=C(O)c1ccc2c(c1)nc(Nc1cccc(Cl)c1)c1ccncc12 [silmitasertib] in the same assay as above.
Summary of the method: as §1

Q: With MTERF3 (UniProt Q96E29) as the target, how does the log2 fold change read?
A: inactive: 0.344

Q: How did the log2 fold change turn out when MTMR9 (UniProt Q96QG7) was run?
A: inactive: 0.019

Q: MTRES1 (UniProt Q9P0P8) was tested. Which log2 fold change did it give?
A: inactive: 0.083

Q: Which log2 fold change does the source give for MYL3 (UniProt P08590) here?
A: inactive: 0.008

Q: How did the log2 fold change turn out when MTSS1 isoform 5 (UniProt O43312) was run?
A: inactive: -0.291

Q: How did the log2 fold change turn out when MYH15 (UniProt Q9Y2K3) was run?
A: inactive: -0.001

Q: With MT1L (UniProt Q93083) as the target, how does the log2 fold change read?
A: inactive: 0.309

Q: For MTHFSD (UniProt Q2M296), which log2 fold change is on record?
A: inactive: 0.114

Q: For MT-ND2 (UniProt P03891), which log2 fold change is on record?
A: inactive: -0.01

Q: MYH2 (UniProt Q9UKX2) was tested. Which log2 fold change did it give?
A: inactive: -0.053

Q: How did the log2 fold change turn out when MTG1 (UniProt Q9BT17) was run?
A: inactive: -0.195

Q: MTHFD1L (UniProt B7ZM99) was tested. Which log2 fold change did it give?
A: inactive: 0

Q: With MYLK (UniProt Q15746) as the target, how does the log2 fold change read?
A: inactive: 0.175

Q: For MTRF1L (UniProt Q9UGC7), which log2 fold change is on record?
A: inactive: 0.089

Q: How did the log2 fold change turn out when MTHFD2L (UniProt Q9H903) was run?
A: inactive: -0.112

Q: MYH6 (UniProt P13533) was tested. Which log2 fold change did it give?
A: inactive: -0.054

Q: Which log2 fold change does the source give for MTURN (UniProt Q8N3F0) here?
A: inactive: -0.025

Q: MTMR10 (UniProt Q9NXD2) was tested. Which log2 fold change did it give?
A: inactive: 0
